Measured values published in paper doi:10.1101/2023.03.27.534359.
These are yes or no findings as the source states them, for the method shown. Binding seen in cells or lysates may run through a third protein. Some entries that bind do so weakly or less than the wild type. Sequences can lack the tags named with a protein.

By UniProt entry, the sequences of proteins in these tests, tags left out. Where a name states a change or a piece, a line headed by the entry shows the natural chain unless it says otherwise.
UniProt P16378: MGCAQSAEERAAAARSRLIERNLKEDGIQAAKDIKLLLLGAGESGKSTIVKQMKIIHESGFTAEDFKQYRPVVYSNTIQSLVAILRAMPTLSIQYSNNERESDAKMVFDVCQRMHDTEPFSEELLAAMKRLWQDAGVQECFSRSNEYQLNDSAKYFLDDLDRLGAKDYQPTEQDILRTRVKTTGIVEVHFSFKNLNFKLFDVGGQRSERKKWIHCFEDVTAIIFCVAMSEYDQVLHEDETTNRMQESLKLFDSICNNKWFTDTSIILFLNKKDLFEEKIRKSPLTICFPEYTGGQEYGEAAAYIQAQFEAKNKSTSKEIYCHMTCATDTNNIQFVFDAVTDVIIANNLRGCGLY
UniProt P09471: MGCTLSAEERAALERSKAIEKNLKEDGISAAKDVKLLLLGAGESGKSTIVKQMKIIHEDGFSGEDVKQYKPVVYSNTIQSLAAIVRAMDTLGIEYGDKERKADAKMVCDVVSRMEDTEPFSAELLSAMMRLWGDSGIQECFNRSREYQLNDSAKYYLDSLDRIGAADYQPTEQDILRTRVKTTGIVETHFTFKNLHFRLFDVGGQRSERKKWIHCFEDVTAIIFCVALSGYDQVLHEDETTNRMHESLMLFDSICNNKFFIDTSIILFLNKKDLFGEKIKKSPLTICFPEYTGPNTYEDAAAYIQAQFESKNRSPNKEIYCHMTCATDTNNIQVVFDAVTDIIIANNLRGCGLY

Target: T1, Drosophila GFP-Ric8 (Drosophila) (UniProt Q9W358)
T1 sequence: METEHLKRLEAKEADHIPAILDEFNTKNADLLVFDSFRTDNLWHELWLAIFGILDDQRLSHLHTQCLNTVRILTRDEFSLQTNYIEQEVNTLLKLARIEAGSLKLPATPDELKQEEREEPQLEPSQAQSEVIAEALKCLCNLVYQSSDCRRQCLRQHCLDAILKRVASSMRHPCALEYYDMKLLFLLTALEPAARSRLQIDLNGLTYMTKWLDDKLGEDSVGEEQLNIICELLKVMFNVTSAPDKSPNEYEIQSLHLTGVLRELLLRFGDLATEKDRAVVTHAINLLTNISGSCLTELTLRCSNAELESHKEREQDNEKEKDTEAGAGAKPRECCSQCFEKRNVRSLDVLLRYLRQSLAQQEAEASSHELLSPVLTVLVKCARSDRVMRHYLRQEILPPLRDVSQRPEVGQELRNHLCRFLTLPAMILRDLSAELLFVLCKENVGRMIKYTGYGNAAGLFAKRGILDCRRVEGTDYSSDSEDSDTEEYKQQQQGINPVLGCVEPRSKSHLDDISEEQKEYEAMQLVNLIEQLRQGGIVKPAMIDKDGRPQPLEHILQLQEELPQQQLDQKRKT
Assay: co-IP

Row | binding | Substance
1 | binds | Drosophila Gαo G203R (from UniProt P16378 1-354)
2 | binds | non-tagged Gαo G203R (from UniProt P09471 1-354)
